Measured values taken from article PMC8525514.

Molecular target: GFP-SAP05 (Aster Yellows phytoplasma strain Witches' Broom (AY-WB; Ca. Phytoplasma asteris))
Assay: co-IP; 3XHA-TFs and GFP-SAP05 or GFP co-expressed in N. benthamiana leaves by agroinfiltration; precipitation of GFP-SAP05, blot for HA

B1: HA-tagged SPL5 (protein, UniProt Q9S758 1-181)
chain: MEGQRTQRRGYLKDKATVSNLVEEEMENGMDGEEEDGGDEDKRKKVMERVRGPSTDRVPSRLCQVDRCTVNLTEAKQYYRRHRVCEVHAKASAATVAGVRQRFCQQCSRFHELPEFDEAKRSCRRRLAGHNERRRKISGDSFGEGSGRRGFSGQLIQTQERNRVDRKLPMTNSSFKRPQIR
B1 was tested, and the binding was “binds”.

B2: HA-tagged GATA18 (protein, UniProt Q8LC79 1-295)
chain: MMQTPYTTSTQGQYCHSCGMFHHHSQSCCYNNNNNSNAGSYSMVFSMQNGGVFEQNGEDYHHSSSLVDCTLSLGTPSTRLCEEDEKRRRSTSSGASSCISNFWDLIHTKNNNSKTAPYNNVPSFSANKPSRGCSGGGGGGGGGGGGDSLLARRCANCDTTSTPLWRNGPRGPKSLCNACGIRFKKEERRTTAATGNTVVGAAPVQTDQYGHHNSGYNNYHAATNNNNNNGTPWAHHHSTQRVPCNYPANEIRFMDDYGSGVANNVESDGAHGGVPFLSWRLNVADRASLVHDFTR
For B2, the binding was “binds”.

No constants are given. Whether binding was seen depends on the method and setting. In cells and extracts the contact can be indirect. Binding can be weak; no strength is given. Tags and fused reporters may be left off the sequences shown.
